Test results published in publication PMC8429736, “Pharmacological characterization of mutant huntingtin aggregate-directed PET imaging tracer candidates” (Scientific Reports, 2021).
No constants are given. Whether binding was seen depends on the method and setting. Some results given as binding are weak or reduced against the parent protein; the word gives no strength. Tags and fused reporters may be left off the sequences shown.

Tests used:
[1] = target: Q46 (poly-glutamine peptide released from GST-Q46 by thrombin); assay: filter-trap assay + thioflavin S fluorescence + electron microscopy; self-assembly into fibrils after tag cleavage: proteins at 30 µM with 150 µg/mL thrombin in 50 mM Tris pH 8.0, 150 mM NaCl, 2 mM CaCl2, 16 h at 37 °C; crude aggregates and pellet after centrifugation analysed; both purified
[2] = target: HTT(1-89)Q46-His(6x) (released from MBP-HTT(1-89)Q46-His(6x) by thrombin); assay: as above

Q: How did the binding [1] turn out when GSQQQQQQQQQQQQQQQQQQQQQQQQQQQQQQQQQQQQQQQQQQQQQQQQ [Q46 (poly-glutamine peptide released from GST-Q46 by thrombin)] was run?
A: binds

B1: HTT(1-89)Q46-His(6x) (released from MBP-HTT(1-89)Q46-His(6x) by thrombin) (domain or fragment)
chain: GGMATLEKLMKAFESLKSFQQQQQQQQQQQQQQQQQQQQQQQQQQQQQQQQQQQQQQQQQQQQQQQPPPPPPPPPPPQLPQPPPQAQPLLPQPQPPPPPPPPPPGPAVAEEPLHR
Q: With B1 as the binder, how does the binding [2] read?
A: binds
